Measured values: publication PMC2246272
These are yes or no findings as the source states them, for the method shown. Binding seen in cells or lysates may run through a third protein. These calls come from enrichment with a bait or labelling near it, and not all partners need be listed. Sequences can lack the tags named with a protein.

Target: T1, Suv39h1 (Suppressor of variegation 39h1), HA-FLAG-tagged (human) (UniProt O43463)
T1 sequence: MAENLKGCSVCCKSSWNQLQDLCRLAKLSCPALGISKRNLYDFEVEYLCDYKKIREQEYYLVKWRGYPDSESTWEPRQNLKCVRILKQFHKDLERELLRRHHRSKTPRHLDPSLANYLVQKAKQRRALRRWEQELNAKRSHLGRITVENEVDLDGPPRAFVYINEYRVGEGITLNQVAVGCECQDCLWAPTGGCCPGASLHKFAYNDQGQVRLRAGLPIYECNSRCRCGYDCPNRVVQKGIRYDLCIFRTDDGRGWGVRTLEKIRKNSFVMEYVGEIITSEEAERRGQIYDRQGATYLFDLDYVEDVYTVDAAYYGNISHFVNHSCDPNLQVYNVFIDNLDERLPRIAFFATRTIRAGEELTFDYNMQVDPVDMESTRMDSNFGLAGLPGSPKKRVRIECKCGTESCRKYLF
Assay: affinity purification with mass spectrometry; double immunopurification (anti-FLAG agarose, FLAG peptide elution, then anti-HA agarose, HA peptide elution) of HA-FLAG-Suv39h1 or HA-FLAG-G9a from micrococcal nuclease-digested HeLa nuclei (primarily mononucleosomes); eluate resolved on NuPAGE gel, histone bands propionylated, trypsin-digested and read by ESI ion-trap MS/MS; other bands identified by mass spectrometry; control: cell line with empty vector

binding: binds
Substance: macro-H2A (human (endogenous in HeLa))
